In PMC3527510, “Bin2 Is a Membrane Sculpting N-BAR Protein That Influences Leucocyte Podosomes, Motility and Phagocytosis” (PLoS ONE, 2012) one finds binding data, which are given here for nine molecules.

Protein sequences, listed by entry. Tags and fused reporters are not part of them.
UniProt Q99961: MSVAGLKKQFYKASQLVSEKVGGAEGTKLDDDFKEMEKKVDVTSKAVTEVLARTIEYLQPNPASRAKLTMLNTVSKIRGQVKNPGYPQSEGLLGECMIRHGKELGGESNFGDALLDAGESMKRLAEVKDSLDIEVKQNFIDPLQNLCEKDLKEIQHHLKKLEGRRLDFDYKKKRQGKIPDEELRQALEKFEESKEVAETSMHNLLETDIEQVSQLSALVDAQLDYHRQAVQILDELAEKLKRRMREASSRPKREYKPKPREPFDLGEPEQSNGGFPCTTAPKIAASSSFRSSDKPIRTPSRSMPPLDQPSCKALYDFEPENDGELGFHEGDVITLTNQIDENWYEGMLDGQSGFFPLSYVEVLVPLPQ
UniProt O35179: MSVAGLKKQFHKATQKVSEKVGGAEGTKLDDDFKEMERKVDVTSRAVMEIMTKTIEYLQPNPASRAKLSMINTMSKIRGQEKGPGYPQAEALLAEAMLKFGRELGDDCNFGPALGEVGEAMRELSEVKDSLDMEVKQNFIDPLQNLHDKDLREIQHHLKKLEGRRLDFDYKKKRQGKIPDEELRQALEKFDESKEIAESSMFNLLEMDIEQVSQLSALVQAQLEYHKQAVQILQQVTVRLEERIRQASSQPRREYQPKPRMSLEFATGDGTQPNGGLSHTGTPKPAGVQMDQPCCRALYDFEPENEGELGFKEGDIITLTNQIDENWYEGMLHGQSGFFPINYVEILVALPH
UniProt Q14155: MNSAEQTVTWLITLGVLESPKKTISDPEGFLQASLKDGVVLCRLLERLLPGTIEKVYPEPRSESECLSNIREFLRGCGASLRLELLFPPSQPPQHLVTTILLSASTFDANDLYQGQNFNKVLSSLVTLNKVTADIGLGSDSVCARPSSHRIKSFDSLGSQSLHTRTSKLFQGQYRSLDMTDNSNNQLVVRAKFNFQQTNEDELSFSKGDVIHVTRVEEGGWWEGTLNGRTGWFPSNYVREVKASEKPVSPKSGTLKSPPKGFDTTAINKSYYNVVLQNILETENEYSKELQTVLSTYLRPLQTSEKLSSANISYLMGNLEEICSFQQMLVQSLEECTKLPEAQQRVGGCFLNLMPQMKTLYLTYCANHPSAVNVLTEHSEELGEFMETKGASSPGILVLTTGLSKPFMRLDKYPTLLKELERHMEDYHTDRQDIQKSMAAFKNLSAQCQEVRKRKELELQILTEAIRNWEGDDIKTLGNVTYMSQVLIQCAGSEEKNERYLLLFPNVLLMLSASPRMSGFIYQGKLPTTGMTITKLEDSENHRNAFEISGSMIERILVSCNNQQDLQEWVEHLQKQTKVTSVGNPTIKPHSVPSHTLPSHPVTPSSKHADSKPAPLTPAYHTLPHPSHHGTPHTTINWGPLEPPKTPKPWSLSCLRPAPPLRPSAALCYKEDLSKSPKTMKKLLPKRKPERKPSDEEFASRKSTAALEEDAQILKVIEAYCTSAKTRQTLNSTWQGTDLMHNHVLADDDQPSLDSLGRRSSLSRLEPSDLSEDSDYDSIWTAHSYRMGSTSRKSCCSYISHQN
UniProt O35180: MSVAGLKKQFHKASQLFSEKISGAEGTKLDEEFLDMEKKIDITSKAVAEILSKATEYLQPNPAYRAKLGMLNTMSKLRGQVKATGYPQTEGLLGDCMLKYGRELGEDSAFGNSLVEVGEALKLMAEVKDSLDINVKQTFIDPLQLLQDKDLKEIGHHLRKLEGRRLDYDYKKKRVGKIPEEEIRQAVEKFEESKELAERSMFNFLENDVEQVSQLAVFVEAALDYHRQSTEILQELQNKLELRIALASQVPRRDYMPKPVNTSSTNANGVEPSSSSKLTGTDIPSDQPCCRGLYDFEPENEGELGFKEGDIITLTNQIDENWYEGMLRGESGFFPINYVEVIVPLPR

Assay [1] concerns the target T1, GST-hBin2-CT (C-terminal region of human Bin2, amino acids 237-565) (human) (UniProt Q9UBW5).
T1 sequence: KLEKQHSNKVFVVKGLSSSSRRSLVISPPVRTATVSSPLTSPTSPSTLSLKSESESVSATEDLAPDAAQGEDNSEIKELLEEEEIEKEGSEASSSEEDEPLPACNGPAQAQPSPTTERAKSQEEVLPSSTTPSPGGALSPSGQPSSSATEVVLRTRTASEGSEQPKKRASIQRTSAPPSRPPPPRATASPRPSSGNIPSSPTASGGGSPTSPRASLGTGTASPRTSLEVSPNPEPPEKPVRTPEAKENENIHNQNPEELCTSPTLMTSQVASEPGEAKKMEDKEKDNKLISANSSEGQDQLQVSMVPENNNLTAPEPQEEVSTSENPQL
Put plainly: pull-down; GST-Bin2-CT on glutathione-sepharose beads with cytosolic extracts of cells or rat tissues, 4°C, 40 min; buffer H with detergents; bands identified by LC-MS/MS and western blot; only the target purified.

Assay [2] concerns the target T2, Bin2, endogenous in human B cells (721.221) (human (endogenous in 721.221)) (UniProt Q9UBW5).
T2 sequence: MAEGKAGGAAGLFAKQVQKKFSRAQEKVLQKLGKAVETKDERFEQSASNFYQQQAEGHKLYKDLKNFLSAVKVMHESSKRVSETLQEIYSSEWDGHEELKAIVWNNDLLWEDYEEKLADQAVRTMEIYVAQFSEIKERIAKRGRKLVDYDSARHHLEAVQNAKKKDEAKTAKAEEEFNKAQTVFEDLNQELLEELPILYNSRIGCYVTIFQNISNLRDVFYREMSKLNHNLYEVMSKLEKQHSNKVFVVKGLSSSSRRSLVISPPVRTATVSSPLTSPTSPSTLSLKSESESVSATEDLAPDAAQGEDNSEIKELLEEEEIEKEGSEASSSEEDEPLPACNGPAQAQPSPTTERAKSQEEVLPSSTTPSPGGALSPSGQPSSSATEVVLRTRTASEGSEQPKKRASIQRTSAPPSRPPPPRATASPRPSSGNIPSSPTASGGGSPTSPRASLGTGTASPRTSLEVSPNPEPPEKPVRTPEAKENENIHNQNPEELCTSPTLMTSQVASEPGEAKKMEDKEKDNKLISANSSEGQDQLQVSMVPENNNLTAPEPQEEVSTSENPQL
Put plainly: co-IP; anti-Bin2 polyclonal antibody (BACT) on protein A:G Sepharose with lysates of human B cells (721.221) or rat mast cells (RBL·2H3), 4°C, 3 h; 20 mM HEPES, 150 mM NaCl, 1 mM DTT, 0.3% Triton X-100, 1% NP-40; Coomassie bands identified by LC-MS/MS; control with pre-immune serum.

The target of assay [3] is T3, Bin2, endogenous in rat mast cells (RBL·2H3) (rat (endogenous in RBL·2H3)) (UniProt Q68FR2).
T3 sequence: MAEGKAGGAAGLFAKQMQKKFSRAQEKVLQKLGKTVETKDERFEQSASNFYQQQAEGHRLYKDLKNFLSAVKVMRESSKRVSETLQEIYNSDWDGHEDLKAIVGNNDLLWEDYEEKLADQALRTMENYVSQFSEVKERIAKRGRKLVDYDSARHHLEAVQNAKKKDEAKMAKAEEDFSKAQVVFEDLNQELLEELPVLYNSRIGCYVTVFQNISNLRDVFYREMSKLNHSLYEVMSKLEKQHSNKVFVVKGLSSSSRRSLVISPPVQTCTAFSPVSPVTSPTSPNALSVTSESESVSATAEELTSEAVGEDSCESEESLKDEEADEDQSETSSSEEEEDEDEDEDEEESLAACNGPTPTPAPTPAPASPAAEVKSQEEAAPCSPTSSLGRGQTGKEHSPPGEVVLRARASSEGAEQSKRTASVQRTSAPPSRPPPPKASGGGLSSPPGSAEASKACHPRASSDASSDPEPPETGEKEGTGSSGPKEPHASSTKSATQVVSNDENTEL
Described as above.

No constants are given. Whether binding was seen depends on the method and setting. In cells and extracts the contact can be indirect. Some binding calls cover weakened binding; strength is not graded here. For part of these data: Where a sequence is shown, tags or fusion partners need not be part of it.

In the case of “Endophilin A2, endogenous in human B cells (721.221) (from UniProt Q99961 1-368)”, the binding entry in assay [1] is on record as “binds”.

On to “Endophilin A1, endogenous in rat brain (from UniProt O35179 1-352)”, for which the binding result in assay [1] is reported as “binds”.

For “β-PIX, endogenous in human B cells (721.221) (from UniProt Q14155 1-803)”, the binding entry in assay [2] is “binds”.

Take “Endophilin A3, endogenous in rat testis (from UniProt O35180 1-347)”: the binding entry in assay [1] was “binds”.

B1: Git2, endogenous in human B cells (721.221) (protein, UniProt Q14161 1-759)
chain: MSKRLRSSEVCADCSGPDPSWASVNRGTFLCDECCSVHRSLGRHISQVRHLKHTPWPPTLLQMVETLYNNGANSIWEHSLLDPASIMSGRRKANPQDKVHPNKAEFIRAKYQMLAFVHRLPCRDDDSVTAKDLSKQLHSSVRTGNLETCLRLLSLGAQANFFHPEKGNTPLHVASKAGQILQAELLAVYGADPGTQDSSGKTPVDYARQGGHHELAERLVEIQYELTDRLAFYLCGRKPDHKNGQHFIIPQMADSSLDLSELAKAAKKKLQSLSNHLFEELAMDVYDEVDRRETDAVWLATQNHSALVTETTVVPFLPVNPEYSSTRNQGRQKLARFNAHEFATLVIDILSDAKRRQQGSSLSGSKDNVELILKTINNQHSVESQDNDQPDYDSVASDEDTDLETTASKTNRQKSLDSDLSDGPVTVQEFMEVKNALVASEAKIQQLMKVNNNLSDELRIMQKKLQTLQSENSNLRKQATTNVYQVQTGSEYTDTSNHSSLKRRPSARGSRPMSMYETGSGQKPYLPMGEASRPEESRMRLQPFPAHIGRSALVTSSSSLPSFPSTLSWSRDESARRASRLEKQNSTPESDYDNTPNDMEPDGMGSSRKGRQRSMVWPGDGLVPDTAEPHVAPSPTLPSTEDVIRKTEQITKNIQELLRAAQENKHDSYIPCSERIHVAVTEMAALFPKKPKSDMVRTSLRLLTSSAYRLQSECKKTLPGDPGSPTDVQLVTQQVIQCAYDIAKAAKQLVTITTKENNN
As to B1, in assay [2], the binding entry was “binds”.

B2: Git2, endogenous in rat mast cells (RBL·2H3) (protein, UniProt Q66H91 1-759)
chain: MSKRLRSNDVCADCSGPDPSWASVNRGTLICDECCSVHRSLGRHISQVRHLKHTPWPPTLLQMVETLYSNGANSIWEHSLLDPASVMSGRRKANPQDKVHPNKAEFIRAKYQMLAFVHRLPCRDDDSVTAKDLSKQLHSSVRTGNLETCLRLLSLGAQANFFHPEKGSTPLHVASKAGQILQAELLAVYGADPGTHDSSGKTPVDYARQGGHRELAERLVEIQYELTDRLAFYLCGRKPDHKNGQHFIIPQMADSSLDLSELAKAAKKKLQSLSNHLFEELAMDVYDEVDRRETDAVWLATQNHSTLVTETTVVPFLPVNPEYSSTRNQGRQKLARFNAHEFATLVIDILSDAKRRQQGSPLSRSKDNVELILRTVSNQHSTESQDNDQPDYDSVASDEDTDVETRASRTNRQKSLDSDLSDGPVTVQEFMEVKHALVASEAKRQQLMKVNNNLSGELRIMQKKLQTLQSENSSLRRQATASACQVQTASDHKDTVSHSSLKRRPSARGSRPMSMYETGSGQKPYLPMGEANHPEESRTRLQPFPTHIGRSALVTSSSSLPSFPSTLSWSRDESTRRASRLEKQNSTPESDYDNTAYDPEPDDTVSGRKGRQRSMLWQGDGPLPDTAEPHAVPSPALPSTEDVIRKTEQITKNIQELLRAAQENKHDSYIPCSERIHAAVTEMAALFPKKPKSDTVRTSLRLLTASAYRLQSECRKALPGDSSLPTDVQLVTQQVIQCAYDIAKAAKQLVTITTKENSS
In the case of B2, the binding entry in assay [3] was “binds”.

B3: α-PIX, endogenous in human B cells (721.221) (protein, UniProt Q15052 1-776)
chain: MNPEEQIVTWLISLGVLESPKKTICDPEEFLKSSLKNGVVLCKLINRLMPGSVEKFCLDPQTEADCINNINDFLKGCATLQVEIFDPDDLYSGVNFSKVLSTLLAVNKATEDQLSERPCGRSSSLSAANTSQTNPQGAVSSTVSGLQRQSKTVEMTENGSHQLIVKARFNFKQTNEDELSVCKGDIIYVTRVEEGGWWEGTLNGRTGWFPSNYVREIKSSERPLSPKAVKGFETAPLTKNYYTVVLQNILDTEKEYAKELQSLLVTYLRPLQSNNNLSTVEVTSLLGNFEEVCTFQQTLCQALEECSKFPENQHKVGGCLLSLMPHFKSMYLAYCANHPSAVNVLTQHSDELEQFMENQGASSPGILILTTNLSKPFMRLEKYVTLLQELERHMEDTHPDHQDILKAIVAFKTLMGQCQDLRKRKQLELQILSEPIQAWEGEDIKNLGNVIFMSQVMVQYGACEEKEERYLMLFSNVLIMLSASPRMSGFIYQGKIPIAGTVVTRLDEIEGNDCTFEITGNTVERIVVHCNNNQDFQEWLEQLNRLIRGPASCSSLSKTSSSSCSAHSSFSSTGQPRGPLEPPQIIKPWSLSCLRPAPPLRPSAALGYKERMSYILKESSKSPKTMKKFLHKRKTERKPSEEEYVIRKSTAALEEDAQILKVIEAYCTSANFQQGHGSSTRKDSIPQVLLPEEEKLIIEETRSNGQTIMEEKSLVDTVYALKDEVRELKQENKRMKQCLEEELKSRRDLEKLVRRLLKQTDECIRGESSSKTSILP
For the molecule B3, the binding entry in assay [2] is on record as “binds”.

B4: β-PIX, endogenous in rat mast cells (RBL·2H3) (protein, UniProt O55043 1-646)
chain: MTDNANSQLVVRAKFNFQQTNEDELSFSKGDVIHVTRVEEGGWWEGTHNGRTGWFPSNYVREIKPSEKPVSPKSGTLKSPPKGFDTTAINKSYYNVVLQNILETEHEYSKELQSVLSTYLWPLQTSEKLSSANTSYLMGNLEEISSFQQVLVQSLEECTKSPEAQQRVGGCFLSLMPQMRTLYLAYCANHPSAVSVLTEHSEDLGEFMETKGASSPGILVLTTGLSKPFMRLDKYPTLLKELERHMEDYHPDRQDIQKSMTAFKNLSAQCQEVRKRKELELQILTEPIRSWEGDDIKTLGSVTYMSQVTIQCAGSEEKNERYLLLFPNLLLMLSASPRMSGFIYQGKLPTTGMTITKLEDSENHRNAFEISGSMIERILVSCNNQQDLHEWVEHLQRQTKVTSVSNPTIKPHSVPSHTLPSHPLTPSSKHADSKPVALTPAYHTLPHPSHHGTPHTTISWGPLEPPKTPKPWSLSCLRPAPPLRPSAALCYKEDLSRSPKTMKKLLPKRKPERKPSDEEFAVRKSTAALEEDAQILKVIEAYCTSAKTRQTLNSSSRKESAPQVLLPEEEKIIVEETKSNGQTVIEEKSLVDTVYALKDEVQELRQDNKKMKKSLEEEQRARKDLEKLVRKVLKNMNDPAWDETNL
Consider B4, for which the binding entry in assay [3] is recorded as “binds”.

B5: α-PIX, endogenous in rat mast cells (RBL·2H3) (protein, UniProt Q5XXR3 1-772)
chain: MNPEERVVTWLISLGVLESPKKTICDPEEFLKSSLKNGVVLCKLISRLLPGSVEKYCQEPQTEADCIDNINDFLKGCATLQVEVFEPDDLYSGANFSKVLNTLLAVNKATEDQLSERPCGRSSSLSATTSSQTNPQAAVPSTTPEQQSEEKAAEMTENGSHQLIVKARFNFKQTNEDELSVCKGDIIYVTRVEEGGWWEGTLNGRTGWFPSNYVREIKPSERPLSPKAVKGFDTAPLTKNYYTVVLQNILDTEKEYAKELQSLLVTYLRPLQSNNNLSTVEFTCLLGNFEEVCTFQQTLCQALEECSKSPENQHKVGGCLLNLMPHFKSMYLAYCANHPSAVNVLTQHSDDLERFMENQGASSPGILILTTSLSKPFMRLEKYVTLLQELERHMEDTHPDHQDILKAIIAFKSLMGQCQDLRKRKQLELQILSEPIQAWEGDDIKTLGNVIFMSQVVMQHGACEEKEERYFLLFSSVLIMLSASPRMSGFMYQGKVPIAGMVVTRLDEIEGNDCTFEITGSTVERIVVHCNNNQDFQEWMEQLNRLTKGPASCSSLSKTSSSSCSTHSSFSSTGQPRGPLEPPQIIKPWSLSCLRPAPPLRPSAALGYKERMSYILKESSKSPKTMKKFLHKRKTERKTSEEEYVIRKSTAALEEDAQILKVIEAYCTSASFQQGTRKDSVPQVLLPEEEKLIIEETRSNGQTIIEEKSLVDTVYALKDEVKELKQENKKMKQCLEEELKSRKDLEKLVRKLLKQTDESIRAESSSKTSILQ
Take B5: in assay [3], the binding result is “binds”.
